This assay concerns the target T1, GFP-DDHD2 (UniProt D3ZJ91).
T1 sequence: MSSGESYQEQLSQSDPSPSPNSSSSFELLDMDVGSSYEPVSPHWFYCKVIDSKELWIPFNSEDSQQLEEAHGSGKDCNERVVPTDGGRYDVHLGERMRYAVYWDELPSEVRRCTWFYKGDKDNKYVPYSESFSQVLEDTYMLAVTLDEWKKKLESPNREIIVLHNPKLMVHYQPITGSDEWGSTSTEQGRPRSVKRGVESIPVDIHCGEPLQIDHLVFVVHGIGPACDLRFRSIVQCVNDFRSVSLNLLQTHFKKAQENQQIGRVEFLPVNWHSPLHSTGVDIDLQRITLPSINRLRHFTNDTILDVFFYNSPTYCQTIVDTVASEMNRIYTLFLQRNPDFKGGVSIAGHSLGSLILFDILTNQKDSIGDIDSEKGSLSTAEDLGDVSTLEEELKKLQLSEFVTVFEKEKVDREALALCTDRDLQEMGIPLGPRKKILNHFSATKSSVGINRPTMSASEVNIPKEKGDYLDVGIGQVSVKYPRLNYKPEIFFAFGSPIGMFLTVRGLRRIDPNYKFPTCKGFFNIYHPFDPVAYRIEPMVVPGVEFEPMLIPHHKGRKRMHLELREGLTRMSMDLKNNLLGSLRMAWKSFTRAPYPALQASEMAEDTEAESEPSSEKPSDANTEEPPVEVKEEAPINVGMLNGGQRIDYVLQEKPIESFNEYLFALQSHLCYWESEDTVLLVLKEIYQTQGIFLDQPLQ
The assay is described as follows: co-IP.

By UniProt entry, the sequences of proteins in these tests, tags left out.
UniProt P61765: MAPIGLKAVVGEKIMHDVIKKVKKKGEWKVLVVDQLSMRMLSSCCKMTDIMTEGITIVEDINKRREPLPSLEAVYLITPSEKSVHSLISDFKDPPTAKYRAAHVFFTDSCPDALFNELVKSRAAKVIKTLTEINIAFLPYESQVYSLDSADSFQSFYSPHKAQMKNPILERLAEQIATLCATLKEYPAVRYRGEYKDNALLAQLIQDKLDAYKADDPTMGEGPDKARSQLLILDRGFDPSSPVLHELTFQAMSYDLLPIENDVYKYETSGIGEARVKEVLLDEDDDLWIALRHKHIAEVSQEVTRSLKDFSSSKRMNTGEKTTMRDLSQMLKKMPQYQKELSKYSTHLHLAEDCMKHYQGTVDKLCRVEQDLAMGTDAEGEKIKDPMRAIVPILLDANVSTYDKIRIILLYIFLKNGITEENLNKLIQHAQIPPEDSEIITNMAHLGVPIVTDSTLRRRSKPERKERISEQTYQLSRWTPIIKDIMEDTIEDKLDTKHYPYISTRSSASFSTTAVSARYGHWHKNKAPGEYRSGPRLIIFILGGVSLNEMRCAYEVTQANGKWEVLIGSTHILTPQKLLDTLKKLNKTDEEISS

No constants are given. Whether binding was seen depends on the method and setting. Binding seen in cells or lysates may run through a third protein. Some entries that bind do so weakly or less than the wild type. Where a sequence is shown, tags or fusion partners need not be part of it.

The values below come from publication doi:10.1101/2023.05.11.540316.

For the substance “Syntaxin-binding protein 1 (STXBP1), endogenous in PC12 cells (from UniProt P61765 1-594)”, the binding result is recorded as “binds”.
